No constants are given. Whether binding was seen depends on the method and setting. In cells and extracts the contact can be indirect. Here binding means that the protein was enriched with, or labelled near, the bait; the list need not be complete.

By UniProt entry, the sequences of proteins in these tests, tags left out. Residues count along the entry.
UniProt P35613, residues 22-385: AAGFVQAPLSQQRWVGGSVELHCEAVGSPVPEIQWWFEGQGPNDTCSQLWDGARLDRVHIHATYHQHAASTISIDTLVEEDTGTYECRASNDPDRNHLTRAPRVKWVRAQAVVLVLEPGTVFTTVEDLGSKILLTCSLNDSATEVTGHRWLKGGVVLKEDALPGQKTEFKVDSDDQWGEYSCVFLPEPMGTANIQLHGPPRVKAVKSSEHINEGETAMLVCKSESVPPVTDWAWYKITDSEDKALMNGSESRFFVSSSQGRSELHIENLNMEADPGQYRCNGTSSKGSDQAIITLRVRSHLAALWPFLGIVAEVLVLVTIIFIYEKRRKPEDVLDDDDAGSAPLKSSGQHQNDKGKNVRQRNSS

The target in one experiment is T1, SLC16A5 (human) (UniProt O15375).
T1 sequence: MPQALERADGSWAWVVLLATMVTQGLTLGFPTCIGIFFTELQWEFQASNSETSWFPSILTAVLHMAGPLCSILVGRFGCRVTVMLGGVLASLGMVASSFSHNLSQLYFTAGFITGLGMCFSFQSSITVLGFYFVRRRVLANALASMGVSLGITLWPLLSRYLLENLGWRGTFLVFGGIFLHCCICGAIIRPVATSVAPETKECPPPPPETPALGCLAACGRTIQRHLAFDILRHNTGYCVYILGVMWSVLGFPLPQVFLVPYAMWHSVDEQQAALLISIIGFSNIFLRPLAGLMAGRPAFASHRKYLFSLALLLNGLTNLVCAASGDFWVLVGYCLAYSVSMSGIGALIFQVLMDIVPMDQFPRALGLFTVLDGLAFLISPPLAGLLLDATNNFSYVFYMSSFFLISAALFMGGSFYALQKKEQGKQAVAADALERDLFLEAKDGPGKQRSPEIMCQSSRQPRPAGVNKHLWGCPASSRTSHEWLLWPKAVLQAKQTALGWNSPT
Nature of the experiment: affinity purification with mass spectrometry.

In a further experiment the target is T2, SLCO1B1 (human) (UniProt Q9Y6L6).
T2 sequence: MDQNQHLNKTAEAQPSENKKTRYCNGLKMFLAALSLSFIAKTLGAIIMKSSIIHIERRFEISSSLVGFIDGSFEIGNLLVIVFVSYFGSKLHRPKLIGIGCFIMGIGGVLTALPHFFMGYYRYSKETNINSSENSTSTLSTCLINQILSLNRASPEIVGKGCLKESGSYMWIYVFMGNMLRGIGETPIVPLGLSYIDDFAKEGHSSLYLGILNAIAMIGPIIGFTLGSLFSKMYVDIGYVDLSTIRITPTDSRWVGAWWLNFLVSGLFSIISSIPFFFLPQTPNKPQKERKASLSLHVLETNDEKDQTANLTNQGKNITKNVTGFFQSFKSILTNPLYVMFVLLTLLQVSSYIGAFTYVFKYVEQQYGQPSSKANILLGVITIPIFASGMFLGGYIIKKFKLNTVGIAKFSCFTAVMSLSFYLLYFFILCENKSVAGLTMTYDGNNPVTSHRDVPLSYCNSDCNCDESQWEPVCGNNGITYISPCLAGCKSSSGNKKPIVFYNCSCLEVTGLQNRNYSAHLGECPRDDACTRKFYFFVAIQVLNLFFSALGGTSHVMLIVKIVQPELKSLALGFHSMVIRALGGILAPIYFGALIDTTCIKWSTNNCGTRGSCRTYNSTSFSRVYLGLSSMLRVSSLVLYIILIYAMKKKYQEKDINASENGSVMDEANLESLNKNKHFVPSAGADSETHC
Nature of the experiment: affinity purification with mass spectrometry.

For Basigin (from UniProt P35613 22-385), the binding entry with SLC16A5 (human) and with SLCO1B1 (human) was “binds” throughout.

(Values after article doi:10.1101/2024.09.30.615192.)
